PubChem BioAssay AID493014 (National Center for Advancing Translational Sciences (NCATS), 2011)
This is one part of the list. Shown are side measurements of this screen, not its main read-out; they come without a call. Compounds called inactive in the main read-out are mostly missing here. Potencies come from curve fits of mixed quality, noted in brackets.

Experiment: qHTS Assay to Find Inhibitors of Chronic Active B-Cell Receptor Signaling
Settings: ABC-DLBCL IkBa-CBG/CBR reporter, luminescence ratio (green luciferase fused to IkBa over red control in TMD8 lymphoma cells), 4 h
Method in brief: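 TMD8 human ABC-DLBCL cells with doxycycline-inducible IκBα–green luciferase fusion and unfused red luciferase, in 0.5% FBS medium; compounds up to 46 uM, 4 h at 37C. Green/red luminescence ratio, filter-overlap corrected, fitted to concentration-response curves.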

[1] = measured here: CBR red luminescence, cell number
[2] = measured here: IkBa-CBG green luminescence

Row | SMILES | AC50 [1] | AC50 [2]
1 | COc1ccc(NS(=O)(=O)c2cccc(C(=O)NNC(=O)CNC(=O)c3ccccc3)c2)cc1 | 15.8 µM [rising, single point] | 
2 | O=C1C=C(c2ccc3ccccc3c2)C[C@@H](c2ccc(F)cc2)C1 | 10.3 µM [rising, partial curve] | 
3 | Cc1cc2ccccc2nc1SCC(=O)NC1CCCCC1 | 0.1 µM [rising, full curve, poor fit] | 3.55 µM [rising, full curve, poor fit]
4 | Cc1[nH][nH]c(=O)c1C(c1ccc(O)c(Br)c1)c1c(C)[nH][nH]c1=O | 7.94 µM [falling, partial curve] | 
5 | N/C(=N\N=C\c1ccc(O)cc1)c1nonc1N | 7.94 µM [falling, partial curve] | 
6 | COC(=O)c1ccc(COC(=O)c2ccc(S(=O)(=O)N3CCC(C)CC3)cc2)o1 | 5.8 µM [falling, partial curve, poor fit] | 
7 | COc1cccc(-c2ncc3ccccc3c2COC(=O)c2ccccc2C(=O)O)c1 | 18.4 µM [falling, partial curve, poor fit] | 
8 | Cc1ccccc1OCCn1cc(C(=O)O)c2ccccc21 | 25.1 µM [falling, single point] | 
9 | Cc1nc2ccccc2c(=O)n1N | 5.62 µM [falling, single point] | 
10 | Cc1cc(Oc2ccc(=O)[nH]n2)nc(Cl)n1 | 5.62 µM [rising, single point] | 
11 | O=C(c1ccccc1)c1ccc(OCCOCCN2CCN(Cc3ccccc3)CC2)cc1 | 10 µM [falling, partial curve] | 
12 | Cc1cc(C)c(C)c(OCCN2CCOCC2)c1 | 35.5 µM [rising, partial curve, poor fit] | 
13 | COC(=O)COc1ccc(-c2nn(C)c(=O)c3ccccc23)cc1 | 0.00517 µM [rising, full curve, poor fit] | 
14 | O=C(Nc1ccccc1)C1=C(O)CC(c2ccc(Cl)cc2)N2CCN=C12 (configuration not stated) | 29.1 µM [falling, partial curve, poor fit] | 
15 | COc1ccc(-c2sc3cc4c(cc3c2C#CCO)OCO4)cc1 | 0.517 µM [rising, full curve] | 
16 | C=CCOC(=O)/C(=C\C=C\c1ccccc1)NC(=O)c1ccccc1 | 1.3 µM [falling, full curve, poor fit] | 
17 | Cc1c(NC(=O)c2c([N+](=O)[O-])cnn2C)c(=O)n(-c2ccccc2)n1C | 35.5 µM [rising, single point] | 
18 | O=C(Nc1c(C(=O)c2ccccc2)oc2ccccc12)c1cc(-c2ccccc2O)n[nH]1 | 18.4 µM [falling, partial curve] | 16.4 µM [falling, single point]
19 | Cc1ccc(C(=O)Nc2ccc(C(=O)O)cc2NC(=O)c2ccc(C)cc2)cc1 | 8.91 µM [falling, partial curve, poor fit] | 
20 | CCCCCCCCN1N=N[C@H]2[C@H]1[C@@H]1C[C@H]2N(C(=O)OC(C)(C)C)O1 | 29.1 µM [rising, single point] | 
21 | O=C(CN1CCCc2ccccc21)N/N=C/c1ccc(O)cc1O | 2.31 µM [falling, full curve, poor fit] | 

Row | SMILES | AC50 [1] | AC50 [2]
22 | COC(=O)CCCNC(=O)c1ccc(S(=O)(=O)NCc2ccco2)cc1 | 5.8 µM [rising, partial curve, poor fit] | 
23 | Cc1ccsc1C(=O)NNC(=O)C1C2C=CC(C2)C1C(=O)O (configuration not stated) | 0.651 µM [falling, full curve] | 
24 | Cc1nnc(SCc2ccc(C(=O)O)cc2)s1 | 29.1 µM [rising, single point] | 
25 | Cc1n[nH]c(C)c1CCN(C)Cc1cn(C)nc1-c1ccc2c(c1)OCCO2 | 6.31 µM [rising, single point] | 
26 | O=C(c1c[nH]c2ccccc12)N1CCOCC1 | 10 µM [falling, single point] | 
27 | Cc1cccc(NC(=O)Cn2nnc(-c3cccs3)n2)c1C | 5.01 µM [rising, partial curve, poor fit] | 
28 | Oc1ccc(Br)cc1-c1ccnn1-c1ccccc1 | 35.5 µM [rising, single point] | 
29 | Cc1cc(/C=C(/C#N)c2nc3ccccc3[nH]2)c(C)n1-c1ccccc1C(=O)O | 22.4 µM [falling, single point] | 
30 | COc1cccc(/C=C/C(=O)c2ccc(NS(=O)(=O)c3ccc(C)cc3)cc2)c1 | 18.4 µM [falling, single point] | 
31 | COc1cccc(C(=O)Nc2ccc(NC(=O)C3CCCCC3)nc2)c1 | 0.112 µM [rising, full curve, poor fit] | 
32 | Cc1cccc(C2CC3(CC(C)(C)NC(=S)N3)Oc3cc(O)ccc32)c1 (configuration not stated) | 14.1 µM [falling, partial curve] | 
33 | COc1ccccc1/C=C\C=N\NC(=O)c1ccco1 | 2.24 µM [falling, full curve] | 
34 | O=C(Nc1ccc2c(c1)OCO2)C1CC(c2ccccc2O)=NO1 (configuration not stated) | 14.1 µM [falling, single point] | 
35 | CCOc1ccc(C(=O)Nc2cccc(NC(=O)c3cccs3)c2)cc1[N+](=O)[O-] | 7.31 µM [falling, partial curve] | 
36 | CCC(=O)c1ccc2c(c1)OCCO2 | 6.31 µM [rising, single point] | 
37 | COc1cc2c(cc1NC(=O)C(C)Sc1cccc[n+]1[O-])oc1ccccc12 (configuration not stated) | 25.9 µM [falling, single point] | 
38 | COC(=O)CN1C(c2cccc(Cl)c2)=Nc2ccc(Cl)cc2C1c1ccccc1 (configuration not stated) | 29.1 µM [falling, single point] | 
39 | O=C(NC1CCc2ccccc21)c1cc(COc2c(F)cccc2F)on1 (configuration not stated) | 7.94 µM [falling, partial curve, poor fit] | 
40 | CCOC(=O)C1=C(C)c2ccccc2N(C(=O)OC)C1(C)C(=O)OCC (configuration not stated) |  | 20.6 µM [falling, partial curve]
41 | O=C(/C=C/c1ccco1)OCC(=O)c1ccc(OC(F)F)cc1 | 8.2 µM [rising, partial curve, poor fit] | 
42 | Cc1ccc(C)c2[nH]c(=O)c(CN(Cc3ccco3)C(=O)Nc3ccccc3)cc12 | 12.6 µM [falling, partial curve] | 

Two compounds drawn at random from the list so far, as already listed:
Row | SMILES | AC50 [1] | AC50 [2]
31 | COc1cccc(C(=O)Nc2ccc(NC(=O)C3CCCCC3)nc2)c1 | 0.112 µM [rising, full curve, poor fit] | 
37 | COc1cc2c(cc1NC(=O)C(C)Sc1cccc[n+]1[O-])oc1ccccc12 (configuration not stated) | 25.9 µM [falling, single point] | 

Continued:

Row | SMILES | AC50 [1] | AC50 [2]
43 | Nc1ccc(SCc2nc3cccc4c3n2CCC4)cc1 | 11.2 µM [rising, single point] | 
44 | COc1ccc(NC(=O)C2CCCCN2S(=O)(=O)c2ccc(F)cc2)c(OC)c1 (configuration not stated) | 15.8 µM [falling, partial curve, poor fit] | 
45 | CCOc1ccccc1C(=O)Nc1cc(OC)ccc1OC | 2.82 µM [falling, full curve, poor fit] | 
46 | COc1ccc(NS(=O)(=O)c2cc(NC(=O)c3nn(C)c(=O)c4ccccc34)ccc2OC)cc1 | 4.47 µM [rising, partial curve] | 
47 | COc1cc(C(=O)c2cocc2C(=O)c2ccc3c(c2)OCO3)cc(OC)c1OC | 15.8 µM [rising, partial curve] | 11.2 µM [falling, partial curve]
48 | O=C(CSC1=Nc2ccccc2C2=NC(Cc3c[nH]c4ccccc34)C(=O)N12)NC1CCCCC1 (configuration not stated) | 32.6 µM [falling, partial curve, poor fit] | 
49 | C=C1CC(C(=O)N/N=C/c2ccc(O)cc2)C1 | 23.1 µM [falling, single point] | 
50 | CCc1noc(C)c1C(=O)Nc1nc(-c2ccc(OC)c(OC)c2)cs1 | 16.4 µM [falling, partial curve, poor fit] | 
51 | COc1ccc(S(=O)(=O)CC(=O)c2cc3cccc(C)c3oc2=O)cc1 | 22.4 µM [falling, partial curve, poor fit] | 
52 | CN(C)C=Nc1ccc2nn(-c3ccccc3)nc2c1 | 35.5 µM [falling, single point] | 
53 | O=C(c1ccccc1-c1nc(-c2ccccc2)no1)N1CCCC1 | 6.51 µM [rising, partial curve, poor fit] | 
54 | COc1ccc(S(=O)(=O)N2CCN(c3ccc(C)cc3C)CC2)cc1OC | 11.6 µM [falling, single point] | 
55 | Cc1ccc2nc(NC(=O)COC(=O)c3ccccn3)sc2c1 | 5.01 µM [falling, full curve, poor fit] | 
56 | CCN(CC(=O)Nc1ccccc1SC)Cc1nc2ccccc2c(=O)[nH]1 | 14.1 µM [falling, single point] | 11.2 µM [falling, partial curve]
57 | COc1ccc(S(=O)(=O)NCC2CCCN(C(=O)CN3CCCCC3)C2)cc1 (configuration not stated) | 14.1 µM [rising, partial curve, poor fit] | 
58 | COc1ccc(-c2ccc(-c3nnn(CC(=O)N4CCOCC4)n3)cc2)cc1 | 0.631 µM [falling, full curve] | 
59 | CC(=O)Oc1ccc(Cn2cnc3cc4ccccc4cc32)cc1 | 7.31 µM [falling, partial curve] | 
60 | COCCNc1nc2ccccc2nc1NS(=O)(=O)c1ccc(C)cc1C | 4.61 µM [falling, partial curve, poor fit] | 
61 | COc1ccc(CNC(=O)CCCN2C(=O)c3ccccc3C2=O)cc1 | 2.51 µM [rising, full curve, poor fit] | 
62 | COc1cccc2c1OCC(C(=O)Nc1nccs1)=C2 | 5.01 µM [falling, partial curve, poor fit] | 
63 | CC(C)(C)c1ccc(-c2cn(-c3ccc(Br)cc3)c3[n+]2CCCS3)cc1 | 35.5 µM [falling, single point] | 
